PMC6375885, “Specific Inhibition of Soluble γc Receptor Attenuates Collagen-Induced Arthritis by Modulating the Inflammatory T Cell Responses” (Frontiers in Immunology, 2019)
Results are given in words; binding and its absence hold for the method and conditions named. One block for each binder: values may come before it.

How the values were obtained:
[1] = target: sγcC255A (mouse (precipitated and detected with α-mouse IL-2Rγ antibody)) (UniProt P34902); experiment: immunoprecipitation, non-reducing SDS-PAGE and immunoblot; culture supernatant of transfected HEK293T cells precipitated with α-mouse IL-2Rγ antibody and protein A/G agarose; resolved under non-reducing conditions (DTT-); blotted with biotinylated α-mouse IL-2Rγ antibody; dimer and monomer bands
[2] = target: soluble common gamma chain (sγc), wild type (mouse (precipitated and detected with α-mouse IL-2Rγ antibody)) (UniProt P34902); experiment: immunoprecipitation, reducing SDS-PAGE and immunoblot; as a1, but the immunoprecipitates were reduced with DTT (DTT+; also in a dose series)
[3] = target: soluble common gamma chain (sγc), wild type (mouse (precipitated and detected with α-mouse IL-2Rγ antibody)) (UniProt P34902); experiment: condition: only with 50 nM core-siAp8 (DNA aptamer) in the medium; immunoprecipitation, SDS-PAGE and immunoblot; HEK293T cells transfected with the sγc construct; 6 h after transfection the medium was changed for medium with full-siAp or core-siAp (DNA aptamers); monomeric and dimeric sγc in the supernatant detected by immunoprecipitation and immunoblot
[4] = target: sγcΔ255-263 (mouse (precipitated and detected with α-mouse IL-2Rγ antibody)) (UniProt P34902); experiment: immunoprecipitation, non-reducing SDS-PAGE and immunoblot; culture supernatant of transfected HEK293T cells precipitated with α-mouse IL-2Rγ antibody and protein A/G agarose; resolved under non-reducing conditions (DTT-); blotted with biotinylated α-mouse IL-2Rγ antibody; dimer and monomer bands

binding [1]: no binding
B1: sγcC255A (protein, UniProt P34902 23-254)
chain: WSSKVLMSSANEDIKADLILTSTAPEHLSAPTLPLPEVQCFVFNIEYMNCTWNSSSEPQATNLTLHYRYKVSDNNTFQECSHYLFSKEITSGCQIQKEDIQLYQTFVVQLQDPQKPQRRAVQKLNLQNLVIPRAPENLTLSNLSESQLELRWKSRHIKERCLQYLVQYRSNRDRSWTELIVNHEPRFSLPSVDELKRYTFRVRSRYNPICGSSQQWSKWSQPVHWGSHTVEEALQFPPSRI

binding [3]: no binding
B2: soluble common gamma chain (sγc), wild type (natural protein)
chain: WSSKVLMSSANEDIKADLILTSTAPEHLSAPTLPLPEVQCFVFNIEYMNCTWNSSSEPQATNLTLHYRYKVSDNNTFQECSHYLFSKEITSGCQIQKEDIQLYQTFVVQLQDPQKPQRRAVQKLNLQNLVIPRAPENLTLSNLSESQLELRWKSRHIKERCLQYLVQYRSNRDRSWTELIVNHEPRFSLPSVDELKRYTFRVRSRYNPICGSSQQWSKWSQPVHWGSHTVEECLQFPPSRI
notes: signal peptide in the construct; common gamma chain (γc, IL-2Rγ), the part before the new C-terminal 9 a.a. of the alternatively spliced soluble form; not part of the membrane form of γc; Secreted; found as a disulfide-linked dimer and as a monomer in the supernatant; The reverse primer has no stop codon, so a C-terminal tag from the vector may follow (surmise; also called WT sγc; soluble γc; …)
binding [2]: no binding (condition: reducing conditions (DTT+))

binding [4]: no binding
B3: sγcΔ255-263 (domain or fragment, UniProt P34902 23-254)
chain: WSSKVLMSSANEDIKADLILTSTAPEHLSAPTLPLPEVQCFVFNIEYMNCTWNSSSEPQATNLTLHYRYKVSDNNTFQECSHYLFSKEITSGCQIQKEDIQLYQTFVVQLQDPQKPQRRAVQKLNLQNLVIPRAPENLTLSNLSESQLELRWKSRHIKERCLQYLVQYRSNRDRSWTELIVNHEPRFSLPSVDELKRYTFRVRSRYNPICGSSQQWSKWSQPVHWGSHTVEE
